Test results as given in the supplement of paper PMC8728848.
This is one part of the list.

Tests used:
Test in all cases: glycan array binding signal (z-score within array); higher = stronger binding
Details in all cases: glycan notation: IUPAC condensed, linker removed
[1] = target: Fuc(a1-3)[Gal3S(b1-4)]GlcNAc6S
How it was run: (§1)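 Glycan array binding is given as a within-array Z-score, which can be read as non-binding when negative. The arrays, 3228 of them, came from the Consortium for Functional Glycomics database and were retained only where the protein sequence was available. Z-scores were averaged across arrays of the same protein sequence at different concentrations or buffers and across linkers.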

[2] = target: Fuc(a1-3)[GalNAc(b1-4)]GlcNAc
How it was run: as §1

[3] = target: Fuc(a1-3)[GalNAc(b1-4)]GlcNAc6S
How it was run: as §1

[4] = target: Fuc(a1-4)GlcNAc
How it was run: as §1

[5] = target: Fuc(b1-3)GlcNAc
How it was run: as §1

[6] = target: Gal(a1-2)Gal
How it was run: as §1

[7] = target: Gal(a1-3)Gal
How it was run: as §1

[8] = target: Gal(a1-3)Gal(b1-3)GlcNAc
How it was run: as §1

[9] = target: Gal(a1-3)Gal(b1-3)GlcNAc(b1-2)Man
How it was run: as §1

[10] = target: Gal(a1-3)Gal(b1-3)GlcNAc(b1-2)Man(a1-3)[Gal(a1-3)Gal(b1-3)GlcNAc(b1-2)Man(a1-6)]Man(b1-4)GlcNAc(b1-4)GlcNAc
How it was run: as §1

[11] = target: Gal(a1-3)Gal(b1-3)GlcNAc(b1-3)GalNAc
How it was run: as §1

[12] = target: Gal(a1-3)Gal(b1-3)GlcNAc(b1-6)GalNAc
How it was run: as §1

[13] = target: Gal(a1-3)Gal(b1-3)[Fuc(a1-4)]GlcNAc(b1-2)Man(a1-3)[Gal(a1-3)Gal(b1-3)[Fuc(a1-4)]GlcNAc(b1-2)Man(a1-6)]Man(b1-4)GlcNAc(b1-4)GlcNAc
How it was run: as §1

[14] = target: Gal(a1-3)Gal(b1-4)Glc
How it was run: as §1

[15] = target: Gal(a1-3)Gal(b1-4)GlcNAc
How it was run: as §1

[16] = target: Gal(a1-3)Gal(b1-4)GlcNAc(b1-2)Man
How it was run: as §1

[17] = target: Gal(a1-3)Gal(b1-4)GlcNAc(b1-2)Man(a1-3)[Gal(a1-3)Gal(b1-4)GlcNAc(b1-2)Man(a1-6)]Man(b1-4)GlcNAc(b1-4)GlcNAc
How it was run: as §1

[18] = target: Gal(a1-3)Gal(b1-4)GlcNAc(b1-3)GalNAc
How it was run: as §1

[19] = target: Gal(a1-3)Gal(b1-4)GlcNAc(b1-6)GalNAc
How it was run: as §1

[20] = target: Gal(a1-3)Gal(b1-4)[Fuc(a1-3)]GlcNAc
How it was run: as §1

[21] = target: Gal(a1-3)Gal(b1-4)[Fuc(a1-3)]GlcNAc(b1-2)Man(a1-3)[Gal(a1-3)Gal(b1-4)[Fuc(a1-3)]GlcNAc(b1-2)Man(a1-6)]Man(b1-4)GlcNAc(b1-4)GlcNAc
How it was run: as §1

[22] = target: Gal(a1-3)GalNAc
How it was run: as §1

[23] = target: Gal(a1-3)[Gal(a1-4)]Gal(b1-4)GlcNAc
How it was run: as §1

[24] = target: Gal(a1-4)Gal(b1-3)GlcNAc(b1-2)Man(a1-3)[Gal(a1-4)Gal(b1-3)GlcNAc(b1-2)Man(a1-6)]Man(b1-4)GlcNAc(b1-4)GlcNAc
How it was run: as §1

[25] = target: Gal(a1-4)Gal(b1-4)Glc
How it was run: as §1

[26] = target: Gal(a1-4)Gal(b1-4)GlcNAc
How it was run: as §1

[27] = target: Gal(a1-4)Gal(b1-4)GlcNAc(b1-2)Man(a1-3)[Gal(a1-4)Gal(b1-4)GlcNAc(b1-2)Man(a1-6)]Man(b1-4)GlcNAc(b1-4)GlcNAc
How it was run: as §1

[28] = target: Gal(a1-4)Gal(b1-4)GlcNAc(b1-3)Gal(b1-4)Glc
How it was run: as §1

[29] = target: Gal(a1-4)GlcNAc
How it was run: as §1

[30] = target: Gal(a1-6)Glc
How it was run: as §1

[31] = target: Gal(b1-2)Gal
How it was run: as §1

[32] = target: Gal(b1-3)Gal
How it was run: as §1

[33] = target: Gal(b1-3)Gal(b1-4)GlcNAc
How it was run: as §1

[34] = target: Gal(b1-3)GalNAc
How it was run: as §1

[35] = target: Gal(b1-3)GalNAc(a1-3)[Fuc(a1-2)]Gal(b1-4)Glc
How it was run: as §1

[36] = target: Gal(b1-3)GalNAc(a1-3)[Fuc(a1-2)]Gal(b1-4)GlcNAc
How it was run: as §1

[37] = target: Gal(b1-3)GalNAc(b1-3)Gal
How it was run: as §1

B1: GS13599A-bth-520-23-520 (Bacteroides thetaiotaomicron) (protein)
chain: SEDTMDRINKDHDHTTSVASRFILADVITSTAFSNASGDINTYASSYIEYEVGVDNQLYYAEVRENEPSSSSTFNNSWNGIYSSLKNARIIIDQCGEGGRDHGNDVTRGMAEVMAAYNCALIADFFGDAPCSQAALVDEKGSPVYMTPKMDTQQEIYTQIISYLDDAIANLQKEDLADVTEQDFLYAGDADKWLKFAYGLKARYTMRLINRSSNKSADYEKVLDYVSKSFTSADDQAAFDIYDSNNINPFYGFYNSRAGFGASTSLGTKLLAYNDPRANRAFFTPIVDKKRSQVAANDPSLVPAPNGSPDQSTSKYGISAFVYAKTAPTLLMSYHELMFLKAEALCRLNRDAEDALKEAVVAGLLNAENSISIAIKELGSGLNTNSSEVITETSAGKYFDDVVKAKYAANPLQETMIQKYLAMWGASGEATETYNDFRRMKGLNENFITLTNPNNSSKFPLRYPYGNSDTAANPEVKAAYGNGDYVYSEPVWWAGGSR
glycan array binding signal (z-score) [1]: 1.29
glycan array binding signal (z-score) [2]: 1.83
glycan array binding signal (z-score) [3]: -0.671
glycan array binding signal (z-score) [4]: 0.385
glycan array binding signal (z-score) [5]: 0.279
glycan array binding signal (z-score) [6]: -0.707
glycan array binding signal (z-score) [7]: -0.044
glycan array binding signal (z-score) [8]: -0.349
glycan array binding signal (z-score) [9]: 0.438
glycan array binding signal (z-score) [10]: 1.47
glycan array binding signal (z-score) [11]: -0.659
glycan array binding signal (z-score) [12]: -0.97
glycan array binding signal (z-score) [13]: 1.41
glycan array binding signal (z-score) [14]: 0.356
glycan array binding signal (z-score) [15]: -0.032
glycan array binding signal (z-score) [16]: -0.226
glycan array binding signal (z-score) [17]: -0.388
glycan array binding signal (z-score) [18]: -0.774
glycan array binding signal (z-score) [19]: -0.591
glycan array binding signal (z-score) [20]: -0.005
glycan array binding signal (z-score) [21]: -0.089
glycan array binding signal (z-score) [22]: -1.08
glycan array binding signal (z-score) [23]: 1.41
glycan array binding signal (z-score) [24]: 1.13
glycan array binding signal (z-score) [25]: 0.257
glycan array binding signal (z-score) [26]: -0.121
glycan array binding signal (z-score) [27]: 0.106
glycan array binding signal (z-score) [28]: -0.078
glycan array binding signal (z-score) [29]: 0.278
glycan array binding signal (z-score) [30]: -1.08
glycan array binding signal (z-score) [31]: 0.033
glycan array binding signal (z-score) [32]: -1.44
glycan array binding signal (z-score) [33]: 1.59
glycan array binding signal (z-score) [34]: -0.399
glycan array binding signal (z-score) [35]: 0.256
glycan array binding signal (z-score) [36]: -0.813
glycan array binding signal (z-score) [37]: 0.596
